According to PubChem BioAssay AID493067 (National Center for Advancing Translational Sciences (NCATS), 2011):
Inconclusive results, whose numbers are uncertain, are shown with a selection of clear calls. Potencies beside an inconclusive call are fits to weak or partial responses and may not hold up. Activity calls are given as the source filed them. The call rests on the fitted dose curve; in most records, active means well fitted activation curve with a large enough effect; inconclusive means small, poorly fitted or top-dose-only effect; inactive means flat fitted curve, though single readings scatter.

Assay: Confirmation Concentration-Response Assay for qHTS Assay for Epigenetic Modulators
Details: murine C127i LDR cells, GFP reporter derepression, 30 h
Description: NIH Molecular Libraries Screening Centers Network [MLSCN] NIH Chemical Genomics Center [NCGC] MLSCN Grant: 1 X01 MH079860-01 Assay Provider: Elisabeth D. Martinez, University of Texas SW Medical Center NCGC Assay Overview: This assay, used for the primary screen, was employed here to confirm actives identified from the Locus Derepression (LDR) assay (PubChem AID 1865). The LDR assay detects the derepression of a GFP reporter that is stably integrated in a region of the genome of murine c127i mammary cells that is presumably silenced. Compounds that derepress or induce this reporter locus are identified by enumerating GFP positive cells using an Acumen Explorer Ex3 (TTP Labtech) laser-scanning microplate cytometer.
NCGC Assay Protocol Summary: Three hundred LDR cells in 5 uL per well were dispensed into black, clear-bottom 1536-well plates. Twenty-three nL compound was transferred to the assay plate and cells were incubated 30 hours at 37 C. Medium was removed, cells were washed two times with PBS, and GFP-positive cells were enumerated as fluorescent objects between the sizes of 20 to 120 um width and depth using an Acumen Explorer Ex3 (TTP Labtech) laser-scanning microplate cytometer. For further details, see Johnson, RL, Huang, W, Jadhav, A, Austin, CP, Inglese, J, Martinez, ED (2008). A quantitative high-throughput screen identifies potential epigenetic modulators of gene expression. Anal Biochem 375: 237-48.

Compound | Potency
C[C@H]1C[C@@H](C)C(=O)[C@@H]([C@H](O)CC2CC(=O)NC(=O)C2)C1 | inconclusive: 1.26 µM [activator, full curve]
COc1ccc(OC)c(N2C(=O)NC(=O)/C(=C\c3ccc([N+](=O)[O-])s3)C2=O)c1 | inconclusive: 14.1 µM [activator, single point]
O=C1NC(=O)N(CCc2ccc(F)cc2)C(=O)/C1=C/C=C/c1ccccc1 | active: 12.6 µM
